# Some of the results follow.
# Legend:
# Assay in all cases: glycan array binding signal (z-score within array); higher = stronger binding
# Conditions in all cases: glycan notation: IUPAC condensed, linker removed
# [1] = target: Gal(b1-3)GalNAc(a1-3)[Fuc(a1-2)]Gal(b1-4)GlcNAc
# Method in brief: (§1)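 The binding signal is a Z-score computed within each array. Data were drawn from 3228 arrays in the Consortium for Functional Glycomics database, restricted to those with a known protein sequence. Scores were averaged over arrays of the same protein sequence at different concentrations or buffers, and over linkers, and negative values can be taken as non-binding.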
# [2] = target: Gal(b1-3)GalNAc(b1-3)Gal(a1-4)Gal(b1-4)Glc
# Method in brief: as §1
# [3] = target: Gal(b1-3)GalNAc(b1-4)Gal(b1-4)Glc
# Method in brief: as §1
# [4] = target: Gal(b1-3)GalNAc(b1-4)[Neu5Ac(a2-3)]Gal(b1-4)Glc
# Method in brief: as §1
# Gal(b1-3)GlcNAc = target: Gal(b1-3)GlcNAc
# Method in brief: as §1
# [5] = target: Gal(b1-3)GlcNAc(a1-6)Gal(b1-4)GlcNAc
# Method in brief: as §1
# [6] = target: Gal(b1-3)GlcNAc(b1-2)Man(a1-3)[Gal(b1-3)GlcNAc(b1-2)Man(a1-6)]Man(b1-4)GlcNAc(b1-4)GlcNAc
# Method in brief: as §1
# [7] = target: Gal(b1-3)GlcNAc(b1-2)Man(a1-3)[Gal(b1-3)GlcNAc(b1-2)Man(a1-6)]Man(b1-4)GlcNAc(b1-4)[Fuc(a1-6)]GlcNAc
# Method in brief: as §1
# [8] = target: Gal(b1-3)GlcNAc(b1-3)Gal(b1-3)GlcNAc
# Method in brief: as §1
# [9] = target: Gal(b1-3)GlcNAc(b1-3)Gal(b1-4)Glc
# Method in brief: as §1
# [10] = target: Gal(b1-3)GlcNAc(b1-3)Gal(b1-4)GlcNAc
# Method in brief: as §1
# [11] = target: Gal(b1-3)GlcNAc(b1-3)Gal(b1-4)GlcNAc(b1-6)[Gal(b1-3)GlcNAc(b1-3)]Gal(b1-4)Glc
# Method in brief: as §1
# [12] = target: Gal(b1-3)GlcNAc(b1-3)Gal(b1-4)[Fuc(a1-3)]GlcNAc(b1-6)[Gal(b1-3)GlcNAc(b1-3)]Gal(b1-4)Glc
# Method in brief: as §1
# [13] = target: Gal(b1-3)GlcNAc(b1-3)GalNAc
# Method in brief: as §1
# [14] = target: Gal(b1-3)GlcNAc(b1-6)Gal(b1-4)GlcNAc
# Method in brief: as §1
# [15] = target: Gal(b1-3)[Fuc(a1-4)]GlcNAc
# Method in brief: as §1
# [16] = target: Gal(b1-3)[Fuc(a1-4)]GlcNAc(b1-2)Man(a1-3)[Gal(b1-3)[Fuc(a1-4)]GlcNAc(b1-2)Man(a1-6)]Man(b1-4)GlcNAc(b1-4)GlcNAc
# Method in brief: as §1
# [17] = target: Gal(b1-3)[Fuc(a1-4)]GlcNAc(b1-2)Man(a1-3)[Gal(b1-3)[Fuc(a1-4)]GlcNAc(b1-2)Man(a1-6)]Man(b1-4)GlcNAc(b1-4)[Fuc(a1-6)]GlcNAc
# Method in brief: as §1
# [18] = target: Gal(b1-3)[Fuc(a1-4)]GlcNAc(b1-3)Gal(b1-3)[Fuc(a1-4)]GlcNAc
# Method in brief: as §1
# [19] = target: Gal(b1-3)[Fuc(a1-4)]GlcNAc(b1-3)Gal(b1-4)GlcNAc
# Method in brief: as §1
# [20] = target: Gal(b1-3)[Fuc(a1-4)]GlcNAc(b1-3)Gal(b1-4)[Fuc(a1-3)]GlcNAc
# Method in brief: as §1
# [21] = target: Gal(b1-3)[GlcNAc(b1-6)]GalNAc
# Method in brief: as §1
# [22] = target: Gal(b1-3)[Neu5Ac(a2-6)]GalNAc
# Method in brief: as §1
# [23] = target: Gal(b1-3)[Neu5Ac(a2-6)]GlcNAc(b1-6)Gal(b1-4)Glc
# Method in brief: as §1
# [24] = target: Gal(b1-3)[Neu5Ac(b2-6)]GalNAc
# Method in brief: as §1
# [25] = target: Gal(b1-4)GalNAc(a1-3)[Fuc(a1-2)]Gal(b1-4)GlcNAc
# Method in brief: as §1
# [26] = target: Gal(b1-4)GalNAc(b1-3)[Fuc(a1-2)]Gal(b1-4)GlcNAc
# Method in brief: as §1
# Gal(b1-4)Glc = target: Gal(b1-4)Glc
# Method in brief: as §1
# Gal(b1-4)Glc6S = target: Gal(b1-4)Glc6S
# Method in brief: as §1
# Gal(b1-4)GlcNAc = target: Gal(b1-4)GlcNAc
# Method in brief: as §1
binder,measurement,setting,value
"MIC2 (Toxoplasma gondii), S8F9G8 (protein) MRLQREAVFGLMFACGMWMWPSEVAGGGWSIVDALRKRYDTSRGGDANGVDTSGVEDVIQSESAIGAAEGCTNQLDICFLIDSSGSIGIQNFRLVKQFLHTFLMVLPIGPEEVNNAVVTYSTDVHLQWDLQSPNAVDKQLAAHAVLDMPYKKGSTNTSDGLKACKQILFTGSRPGREHVPKLVIGMTDGESDSDFRTVRAAKEIRELGGIVTVLAVGHYVKHSECRSMCGCSGTSDDDSPCPLYLRADWGQLATAIKPMLKEVCKTLPQDAICSDWSAWSPCSVSCGDGSQIRTRTEVSAPQPGTPTCPDCPAPMGRTCVEQGGLEEIRECSAGVCAVDAGCGVWGEWSAWSASCGNATRKRERTRYNDPPPQGAGRRCENQDPPVLQEQTEEATLAPCITIPPTPPEWAAWSDCTVTCGGGNRHRVRNALPPGLGSQNGESDESLVSKLWPGTDLRQEEACNTSPCPINATCGQFEEWSTCSVSCGGGLKTRSRNPWNEDQQHGGLSCEQQHPGGRTETITCNPQACPVDERPGEWAEWGECSVTCGDGVRERRRGKSLVEAKFGGRTIDQQNEALPEDLKIKNVEYEPCSYPACGASCTYVWSDWNKCVCPMGYQARHAAVKFDYRNKPCDLPTFETKACSCGETNPVPSEGTTPGAPGATGPEQPNQRPLPEGSDENETPTNEEGEQSKKESGSGIAGAIAGGVIGGLILLGAAGGASYHYYLSSSVGSPSAEIEYEADDGATKVVMEEEKETLVPVDDDSDMWME",glycan array binding signal (z-score),[1],0.169
same,glycan array binding signal (z-score),[2],0.459
same,glycan array binding signal (z-score),[3],0.057
same,glycan array binding signal (z-score),[4],0.618
same,glycan array binding signal (z-score),Gal(b1-3)GlcNAc,-0.655
same,glycan array binding signal (z-score),[5],-0.214
same,glycan array binding signal (z-score),[6],-0.698
same,glycan array binding signal (z-score),[7],1.61
same,glycan array binding signal (z-score),[8],-0.795
same,glycan array binding signal (z-score),[9],-0.513
same,glycan array binding signal (z-score),[10],0.477
same,glycan array binding signal (z-score),[11],-0.45
same,glycan array binding signal (z-score),[12],-0.965
same,glycan array binding signal (z-score),[13],-0.163
same,glycan array binding signal (z-score),[14],-0.04
same,glycan array binding signal (z-score),[15],-0.077
same,glycan array binding signal (z-score),[16],-0.749
same,glycan array binding signal (z-score),[17],-0.433
same,glycan array binding signal (z-score),[18],-0.718
same,glycan array binding signal (z-score),[19],-0.085
same,glycan array binding signal (z-score),[20],0.177
same,glycan array binding signal (z-score),[21],-0.743
same,glycan array binding signal (z-score),[22],-0.695
same,glycan array binding signal (z-score),[23],-0.102
same,glycan array binding signal (z-score),[24],-0.412
same,glycan array binding signal (z-score),[25],-0.048
same,glycan array binding signal (z-score),[26],0.025
same,glycan array binding signal (z-score),Gal(b1-4)Glc,-0.371
same,glycan array binding signal (z-score),Gal(b1-4)Glc6S,1.28
same,glycan array binding signal (z-score),Gal(b1-4)GlcNAc,0.256
